From US5908781A, “Monoclonal antibodies to ceftiofur” (The United States of America as represented by the …, priority 1996, dated 1999)
At least one read-out could not be matched to a standard name with certainty.

Key:
[1] = molecular target: Cef-116; experiment: Competitive indirect ELISA (ciELISA), competitor inhibition of MAb Cef-116 binding; parameters: species or system Balb/c mice; conditions: MAb Cef-116, final dilution 1:100; BSA-S-GMBS-Cef-coated plates; value ± standard deviation, average of 3-6 determinations
Experimental: (§1) The supernatant culture fluid from the cloned hybridomas may also be screened to select for those producing antibodies having a high affinity for ceftiofur. Affinity may be measured using a variety of well known techniques, such as ELISA, RIA or equilibrium dialysis using labeled ceftiofur. […] In accordance with this embodiment, the antibody containing supernatant is added to a ceftiofur or ceftiofur-complex coated substrate such as the wells of a microtiter plate, together with a range of concentrations of free ceftiofur as a competitor. Following incubation and washing, bound antibody in the wells is determined in the same manner as the db-ELISA. Percent inhibition may be calculated as (1-B/Bo)×100, where B is the optical density (OD) of a well with a competitor and Bo is the mean OD of the wells without competitor (control). […] However, for greater accuracy, the affinity may be alternatively measured at 50% inhibition (IC50).
(§2) Antibodies and ELISA Methods. A standard indirect ELISA method in which the hapten conjugate is immobilized on 96-well microtiter plates was used to evaluate the response of Balb/c mice towards the immunogen KLH-SMCC-desCef. […] Finally, the plates were washed five times with TWEEN 20-water, 100 μL of K-blue substrate (Elisa Technologies, Lexington, Ky.) was added, and the absorbance was read at 655 nm. […]

[2] = molecular target: Cef-68; experiment: Competitive indirect ELISA (ciELISA), competitor inhibition of MAb Cef-68 binding; parameters: species or system Balb/c mice; conditions: MAb Cef-68, final dilution 1:20; BSA-S-GMBS-Cef-coated plates; value ± standard deviation, average of 3-6 determinations
Experimental: as §1, §2

## CC(=O)OCC1=C(C(=O)O)N2C(=O)[C@@H](NC(=O)CSc3ccncc3)[C@H]2SC1 [Cephapirin, cephapirin]
[1]
  IC50 (ppb) Values for Antibodies, Cef-116: -- (no competitive inhibition was observed at a competitor concentration of 1000 ng/well)
[2]
  IC50 (ppb) Values for Antibodies, Cef-68: -- (no competitive inhibition was observed at a competitor concentration of 1000 ng/well)
